The source of these data is PubChem BioAssay AID493014 (National Center for Advancing Translational Sciences (NCATS), 2011).

The nature of this experiment: qHTS Assay to Find Inhibitors of Chronic Active B-Cell Receptor Signaling. The note with it: ABC-DLBCL IkBa-CBG/CBR reporter, luminescence ratio (green luciferase fused to IkBa over red control in TMD8 lymphoma cells), 4 h. In outline:
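Cell line TMD8 (human ABC DLBCL), stably expressing tet-inducible CBG68-IkBa fusion and CBR; IMDM/0.5% FBS; cpd up to 46 uM; dox induction, 4 h, 37C/5% CO2; dual luminescence; green/red ratio; MG132 control.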

Where [1] appears, read: measured here: CBR red luminescence, cell number.
The mark [2] stands for this setting: measured here: IkBa-CBG green luminescence.

This is one part of the list. Further columns of the screen follow, without active or inactive calls. Compounds called inactive in the main read-out are mostly missing here. The note in brackets gives the kind of curve behind each potency; many fits are weak.

In the case of `OCCN1CCN(c2nc(-c3ccccc3)c3cc(Br)ccc3n2)CC1`, the concentration at half-maximal activity (AC50) (as a rule, the concentration giving half of the maximal activity seen) under setting [1] is 7.94 µM [falling, partial curve, poor fit].

Turning to `CCOC(=O)Cn1cc(/C=N/NC(=O)c2cc3ccccc3o2)c2ccccc21`, the concentration at half-maximal activity (AC50) under setting [1] is 7.94 µM [falling, partial curve].

For the molecule `COC(=O)/C=C1/S/C(=N/NC(=O)c2ccccc2C)NC1=O`, the half-maximal activity concentration (AC50) under setting [1] was 1.64 µM [falling, full curve].

On to `C/C(=N\NC(=O)c1ccc(NS(=O)(=O)c2cccs2)cc1)c1ccccn1`, for which the half-maximal activity concentration (AC50) under setting [1] was 8.91 µM [falling, partial curve, poor fit].

Consider `COc1ccccc1N1CCN(C(=O)c2ccc(-c3ccccc3)cc2)CC1`, for which, under setting [1], the concentration at half-maximal activity (AC50) is 22.4 µM [falling, single point].

As to `Cc1nonc1OC(C)CNCCNc1ccc([N+](=O)[O-])cc1` (stereo not drawn), the AC50 under setting [1] is 0.708 µM [rising, partial curve, poor fit].

Consider `CCOC(=O)C1(Cc2ccc(OC)cc2)CCN(S(C)(=O)=O)CC1`, for which the AC50 under setting [1] is 8.91 µM [rising, partial curve, poor fit].

Take `COc1cccc(C(=O)NNC(=O)C2CC(C)=C(C)CC2C(=O)O)c1` (stereo not drawn): the AC50 under setting [1] was 4.47 µM [falling, partial curve].

On to `O=Cc1cc2ccccc2nc1SCc1ccc(Cl)c(Cl)c1`, for which the half-maximal activity concentration (AC50) reads like this: under setting [1], 0.708 µM [rising, full curve, poor fit]; under setting [2], 1.58 µM [falling, partial curve].

For `Cc1ccc(Nc2cc(C)nn2-c2nc(C)cc(=O)[nH]2)cc1`, the AC50 under setting [1] is 5.62 µM [rising, single point] and the AC50 under setting [2] was 3.55 µM [falling, single point].

In the case of `Nc1cc(C2CCCC2)nn1-c1ccccc1`, under setting [1], the AC50 is 11.2 µM [falling, single point].

Take `CCOc1ccc(NC(=O)C/C(C)=N/NC(=O)c2cnccn2)cc1`: the AC50 under setting [1] is 5.62 µM [falling, partial curve, poor fit].

Turning to `COc1ccc(/C=C2/N=C(SCC(=O)Nc3cc(C)on3)N(c3ccccc3)C2=O)cc1`, under setting [1], the AC50 was 3.66 µM [rising, full curve, poor fit].

In the case of `Cc1cc(OCC(=O)NC(C)(C)C)ccc1Cl`, the AC50 under setting [1] was 6.51 µM [rising, full curve, poor fit].

With `Cc1ccc(CN2CCN(C(=O)c3cccc4ccccc34)CC2)cc1`, the concentration at half-maximal activity (AC50) under setting [1] was 22.4 µM [falling, single point].

With `COc1ccc2nc(Nc3sc4c(c3C(N)=O)CCCC4)sc2c1`, under setting [1], the AC50 was 29.1 µM [falling, single point].

`CN(C)C(=O)c1ccc(-c2cc(C(F)(F)F)nn2C)s1`: the half-maximal activity concentration (AC50) under setting [1] is 17.8 µM [rising, partial curve, poor fit].

Turning to `CCc1ccc(NC(=O)c2n[nH]c(=O)c3ccccc23)cc1`, under setting [1], the AC50 was 1 µM [rising, full curve].

As for `CC(C)C(=O)Nc1nnc(SCC(=O)NCc2ccc3c(c2)OCO3)s1`, the AC50 under setting [1] was 12.6 µM [rising, partial curve, poor fit].

Take `Cc1cccc([C@@H](NC(=O)OC(C)(C)C)C(=O)OC(C)(C)C)c1`: the AC50 under setting [1] was 7.31 µM [rising, partial curve, poor fit].

As to `CC(/C=C/c1ccccc1)=N\NC(N)=S`, the concentration at half-maximal activity (AC50) is 3.16 µM [falling, single point] under setting [1] and 3.98 µM [falling, full curve] under setting [2].

As for `COc1ccccc1N1CCN(c2nc(C)nc3c2oc2ccccc23)CC1`, the concentration at half-maximal activity (AC50) under setting [1] was 20 µM [falling, partial curve, poor fit].

Consider `O=C(CCN1CCc2ccccc2C1)c1ccc2c(c1)OCCO2`, for which, under setting [1], the AC50 is 5.62 µM [falling, partial curve].

For the molecule `CN1CCN(S(=O)(=O)c2ccc(N3CCN(C(=O)c4ccccc4)CC3)nc2)CC1`, the half-maximal activity concentration (AC50) under setting [1] is 0.355 µM [falling, partial curve, poor fit].

On to `Cc1ccc(OCC(O)CNCc2ccc(F)cc2)cc1` (stereo not drawn), for which the AC50 under setting [1] was 3.16 µM [rising, full curve].

For `O=C(O)c1cc(N/N=C/c2ccc(OCc3ccccc3)cc2)ccc1Cl`, the concentration at half-maximal activity (AC50) under setting [1] was 6.31 µM [falling, partial curve].

Take `Oc1ccc(CCNc2c3ccccc3nc3ccccc23)cc1O`: the AC50 under setting [1] is 7.94 µM [falling, partial curve].

Take `CCOc1cc(/C=C/C(=O)O)ccc1OCc1ccccc1`: the concentration at half-maximal activity (AC50) under setting [1] was 28.2 µM [falling, single point].

On to `O=C1N/C(=C/c2cccs2)C(=O)N1Cc1ccc(Br)cc1`, for which the AC50 under setting [1] is 3.16 µM [falling, partial curve, poor fit].

`Cc1ccc(/C=N/Nc2ccnc3cc(Cl)ccc23)c(C)c1`: the concentration at half-maximal activity (AC50) under setting [1] was 0.366 µM [rising, full curve].

For the molecule `CSc1cccc(NS(=O)(=O)c2ccc(F)cc2)c1`, the AC50 under setting [1] was 3.26 µM [falling, partial curve, poor fit].

As to `Cc1nn(CC(=O)NC2CCS(=O)(=O)C2)c(C)c1[N+](=O)[O-]` (stereo not drawn), the half-maximal activity concentration (AC50) under setting [1] was 32.6 µM [rising, partial curve, poor fit].

On to `COC(=O)c1ccc(N2C(=O)CC(NCc3ccccc3)C2=O)cc1` (stereo not drawn), for which the concentration at half-maximal activity (AC50) under setting [1] was 23.1 µM [rising, single point].

With `CCOC(=O)Nc1nc2ccccc2s1`, the concentration at half-maximal activity (AC50) under setting [1] is 0.0259 µM [rising, full curve, poor fit].

Take `Cc1ccc(NC(=O)Cn2c(=O)oc3ccccc32)cc1`: under setting [1], the half-maximal activity concentration (AC50) was 1.26 µM [falling, partial curve, poor fit].

For `CC(C)N(Cc1nc(-c2ccccc2)no1)C(=O)C(C)(C)C`, the AC50 under setting [1] is 0.731 µM [falling, partial curve, poor fit].

Regarding `COc1ccccc1/C=N/NC(=O)c1ccc(NC(=O)c2cccc([N+](=O)[O-])c2)cc1`, under setting [1], the AC50 is 35.5 µM [falling, partial curve, poor fit].

On to `OCCCC1CCCN(Cc2cn[nH]c2-c2ccc(F)cc2F)C1` (stereo not drawn), for which, under setting [1], the AC50 is 1.26 µM [falling, partial curve, poor fit].

On to `CCOc1cc(/C=C2/NC(=O)N(Cc3ccccc3F)C2=O)ccc1O`, for which, under setting [2], the AC50 was 23.1 µM [rising, partial curve, poor fit].

On to `CCOC(=O)CNC(=O)c1ccccc1`, for which the concentration at half-maximal activity (AC50) under setting [1] is 3.16 µM [falling, partial curve, poor fit].

With `O=C(CN1C(=O)NC2(CCCC2)C1=O)OCc1ccc(Cl)c(Cl)c1`, the concentration at half-maximal activity (AC50) under setting [1] was 0.231 µM [rising, full curve, poor fit].

Consider `Cn1c(N)c(S(=O)(=O)c2ccc(Br)cc2)c2nc3ccccc3nc21`, for which the AC50 under setting [1] was 5.01 µM [falling, full curve].

Consider `COc1ccccc1NC(=O)N(CCN(C)C)Cc1cc2cc(C)ccc2[nH]c1=O`, for which, under setting [1], the concentration at half-maximal activity (AC50) is 0.651 µM [falling, full curve, poor fit].

Take `COc1cc(/C=C2/SC(=S)N(c3c(C)n(C)n(-c4ccccc4)c3=O)C2=O)ccc1O`: under setting [1], the AC50 was 15.8 µM [rising, single point].

`COc1ccccc1-c1nc(-c2cccc(C)c2)no1`: the concentration at half-maximal activity (AC50) under setting [1] was 7.31 µM [falling, partial curve].

With `CC(=O)C(=Cc1cc(C)n(-c2ccccc2)c1C)C(C)=O`, under setting [1], the half-maximal activity concentration (AC50) was 17.8 µM [rising, partial curve, poor fit].

Take `CS(=O)(=O)c1ccc2nc(NC(=O)C3COc4ccccc4O3)sc2c1` (stereo not drawn): under setting [1], the AC50 was 0.224 µM [rising, full curve, poor fit].

Take `C/C(=N/NC(=O)c1cccs1)c1ccco1`: under setting [1], the half-maximal activity concentration (AC50) is 18.4 µM [falling, single point].

In the case of `O=C1C2CC=CCC2C(=O)N1CC1CCCO1` (stereo not drawn), the AC50 under setting [1] is 25.9 µM [rising, single point].

On to `CCOc1cc(C(=O)N/N=C/C2CC=CCC2)cc(OCC)c1OCC` (stereo not drawn), for which the half-maximal activity concentration (AC50) is, setting by setting: under setting [1], 16.4 µM [rising, partial curve]; under setting [2], 13 µM [falling, partial curve].

On to `Cc1c(C(=O)Oc2cccc3cccnc23)oc2ccccc12`, for which the half-maximal activity concentration (AC50) was 35.5 µM [falling, single point] under setting [1] and 11.2 µM [falling, partial curve] under setting [2].

For the molecule `O=C(Nc1cccc(Cl)c1)c1cc(N=Nc2ccc([N+](=O)[O-])cc2Cl)ccc1O`, under setting [1], the concentration at half-maximal activity (AC50) is 0.794 µM [rising, full curve, poor fit].

`C=CC[C@@H](Cc1ccc(F)cc1)C(=O)OC[C@@H]1CCCN1C(=O)[C@H](CC=C)CC(=O)N(CCO)Cc1ccccc1`: under setting [1], the AC50 was 20.6 µM [falling, single point].

Take `Cc1ccc(Nc2nc(COC(=O)COc3ccc(C=O)cc3)cs2)cc1`: under setting [1], the AC50 is 8.2 µM [rising, partial curve, poor fit].

Consider `COc1ccc(CNC(=O)CSc2nnc3c(n2)[nH]c2ccccc23)cc1`, for which the AC50 under setting [1] was 35.5 µM [rising, partial curve, poor fit].

Consider `COc1ccc(/C=C/c2nc(-c3ccccc3O)n[nH]2)cc1OC`, for which, under setting [1], the half-maximal activity concentration (AC50) was 7.31 µM [falling, partial curve, poor fit].

Consider `COC(=O)c1ccc(/C=C2/SC(=S)N(CCCC(=O)Nc3ccc(O)cc3)C2=O)cc1`, for which the AC50 under setting [1] is 5.62 µM [falling, partial curve, poor fit].

On to `O=C(NCCc1ccccc1)c1ccc2c(c1)OCCCO2`, for which, under setting [1], the AC50 was 2.82 µM [falling, full curve].

For `O=C(Cc1ccccc1)NCC(=O)N1CCc2ccccc2C1`, the concentration at half-maximal activity (AC50) under setting [1] was 14.1 µM [falling, partial curve, poor fit].

Consider `O=C(Cc1ccc(Br)cc1)Nc1ccc(Cl)cc1`, for which the AC50 under setting [1] was 5.01 µM [rising, partial curve].

Consider `O=C(O)CSc1ncnc2sc3c(c12)CCCC3`, for which the concentration at half-maximal activity (AC50) under setting [1] is 14.1 µM [falling, partial curve].

In the case of `CN=C(C)C1=C(O)C(C(=O)OC)C(C)(C)CC1=O` (stereo not drawn), the concentration at half-maximal activity (AC50) under setting [1] is 3.66 µM [rising, single point].

In the case of `Cc1cc(=O)[nH]c2nnc(-c3ccc(Br)cc3)n12`, the AC50 under setting [1] was 3.55 µM [falling, partial curve, poor fit].
